# According to article PMC7819943, “Rice protein-binding microarrays: a tool to detect cis-acting elements near promoter regions in rice”:
# The list shows a part of the results.
# Target: T1, OsSMF1 (Oryza sativa, UniProt Q6ZLB0 1-436)
# T1 sequence: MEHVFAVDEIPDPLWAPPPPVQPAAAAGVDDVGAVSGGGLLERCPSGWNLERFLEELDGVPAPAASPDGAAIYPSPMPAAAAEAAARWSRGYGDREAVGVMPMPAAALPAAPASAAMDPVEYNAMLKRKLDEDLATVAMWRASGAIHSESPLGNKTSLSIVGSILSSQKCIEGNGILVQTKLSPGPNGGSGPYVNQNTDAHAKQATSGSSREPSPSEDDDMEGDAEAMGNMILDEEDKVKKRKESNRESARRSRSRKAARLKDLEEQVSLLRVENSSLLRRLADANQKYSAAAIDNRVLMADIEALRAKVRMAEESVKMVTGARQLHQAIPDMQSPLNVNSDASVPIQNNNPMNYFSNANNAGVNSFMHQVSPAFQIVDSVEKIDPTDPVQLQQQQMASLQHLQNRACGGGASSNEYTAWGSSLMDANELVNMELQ
# Test: protein-binding microarray (RPBM); PBS, 2% BSA, 51.3 ng/ul salmon testes DNA, 50 uM zinc acetate, 200 nM TF, 25 C, 1 h; high values mean tight binding
# Details: protein: recombinant; tags: N-terminal polyhistidine and DsRed monomer fusion (pET32a); chain copies: 2; label: CyDye5-dUTP incorporated in the synthesized complementary strand; 3' TTTTT single-stranded linker to array surface; dsDNA, one strand shown
# Procedure, shortened: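 For the binding signal, per-feature fluorescence intensity was read in arbitrary units on an Axon 4000B scanner. Before scanning, a 2% BSA-blocked custom Agilent array made double-stranded with Cy5-dUTP was washed after 1 h at 25 °C with 200 nM protein and 50 µM zinc acetate. The proteins were Ni–NTA-purified transcription factors with N-terminal polyhistidine and DsRed fusions, expressed in E. coli BL21-CodonPlus.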
row,Sequence,binding signal
1,TCCAATCTCGGGTTCACATCCCCTGCCATCCAGCTCATACCGGAGTCACCTAGTGCAG,5230 fluorescence intensity (a.u.)
2,ATCGGACGCCTCAGGTTGCGCCACGCGTCACGCAGCGGGGCGGAGTCACCTAGTGCAG,8870 fluorescence intensity (a.u.)
3,TGGGGAGGGGAGGGAGAGGTGTCGTCAACAGGGAGGGAGGCGGAGTCACCTAGTGCAG,5790 fluorescence intensity (a.u.)
4,GGGTTGAGCACAGCAGTTTACAGTAGTGTTATTTCGTATTCGGAGTCACCTAGTGCAG,3550 fluorescence intensity (a.u.)
5,TTGTGGCCTGCGTCCTCCTCCTGGACCTTCTCCCCTTCCCCGGAGTCACCTAGTGCAG,3180 fluorescence intensity (a.u.)
6,CGAATGTATTGGAGCCATGCATGCCGTGGCCTTTGATGCACGGAGTCACCTAGTGCAG,32400 fluorescence intensity (a.u.)
7,CGTAGCAACCACAAGTTACACGCAGCAATTTGCACATCACCGGAGTCACCTAGTGCAG,3440 fluorescence intensity (a.u.)
8,CTTCTACCTAGTTCTCCCTTAGCCCTTGTCTATACGCATCCGGAGTCACCTAGTGCAG,3870 fluorescence intensity (a.u.)
9,GTGGTCTGATAAGTGATGATGATGTTTCAGAGGTTTATTCCGGAGTCACCTAGTGCAG,3930 fluorescence intensity (a.u.)
10,GATGCAGACGTGTTCTTGTCTCACCCTTCACCTGCATGATCGGAGTCACCTAGTGCAG,6110 fluorescence intensity (a.u.)
11,TTGTCATGGAGTTCTACCCGTCTGACGTCGGCGCCCTCGCCGGAGTCACCTAGTGCAG,6180 fluorescence intensity (a.u.)
12,CCCTGCAAGTTGCAATTAATGGTGAGTATGATCTGATCTGCGGAGTCACCTAGTGCAG,3210 fluorescence intensity (a.u.)
13,AAGCTAAGTAAAGTAACAACCTAATCAGATGACACAGCACCGGAGTCACCTAGTGCAG,6750 fluorescence intensity (a.u.)
14,TTCAGGTGATGAGTCAATGGAGGAGGATGTCATGGAGATTCGGAGTCACCTAGTGCAG,4750 fluorescence intensity (a.u.)
15,GCAACGTGTCCGGCCCGCCGGGGTACGTGTCATGTCCTCTCGGAGTCACCTAGTGCAG,7690 fluorescence intensity (a.u.)
16,CGACCCGTTTCCTTCCAACACAAGGCACCTCCACGACGATCGGAGTCACCTAGTGCAG,3360 fluorescence intensity (a.u.)
17,CCAAGATGAACACCACCCTCCACGTCTTCCTATGAACGCACGGAGTCACCTAGTGCAG,6980 fluorescence intensity (a.u.)
18,GAAGCAACATAAAACCCACCATATGGACCAACCGACCTCTCGGAGTCACCTAGTGCAG,3240 fluorescence intensity (a.u.)
19,ACTTACACAGTAGTTACACCTCATTTACACCCCACTTACACGGAGTCACCTAGTGCAG,3480 fluorescence intensity (a.u.)
20,CATCAACGGCGACCAGCTCCGGCGGCCACAACGGCAAGGGCGGAGTCACCTAGTGCAG,21700 fluorescence intensity (a.u.)
21,GCGAGTTGTGAATAGCAATGTGTGCGTGTGCATTCGTGTGCGGAGTCACCTAGTGCAG,4460 fluorescence intensity (a.u.)

# An excerpt of these results, as tab-separated lines:
row	Sequence	binding signal
3	TGGGGAGGGGAGGGAGAGGTGTCGTCAACAGGGAGGGAGGCGGAGTCACCTAGTGCAG	5790 fluorescence intensity (a.u.)
4	GGGTTGAGCACAGCAGTTTACAGTAGTGTTATTTCGTATTCGGAGTCACCTAGTGCAG	3550 fluorescence intensity (a.u.)
5	TTGTGGCCTGCGTCCTCCTCCTGGACCTTCTCCCCTTCCCCGGAGTCACCTAGTGCAG	3180 fluorescence intensity (a.u.)

# (continued)

row,Sequence,binding signal
1,CAGACCGCGATCCATCGATTTCGAGGATAACTTTTATTTTCGGAGTCACCTAGTGCAG,3310 fluorescence intensity (a.u.)
2,TGCTAGTGCAAATTCAATGGGAAACTAATGTATAACAGGACGGAGTCACCTAGTGCAG,25500 fluorescence intensity (a.u.)
3,TCCACCTGGGTTCAAATCCTAGATTTGACACGGGTGCTCGCGGAGTCACCTAGTGCAG,4830 fluorescence intensity (a.u.)
4,TTTGCTGCCCGTACCTTTCGGTCCTTTGCGATGTCCACCACGGAGTCACCTAGTGCAG,4310 fluorescence intensity (a.u.)
5,TTAGAGGGAATATATATTTCACTGTGATTGCCACGGAGGACGGAGTCACCTAGTGCAG,5120 fluorescence intensity (a.u.)
6,TTTCGGCGAGTCAACATCTGTGACTCACGAATCGGACTTTCGGAGTCACCTAGTGCAG,6560 fluorescence intensity (a.u.)
7,ATGAGCTATAGTTAGGAGTCCGATCGTTTCACATTGACATCGGAGTCACCTAGTGCAG,18000 fluorescence intensity (a.u.)
8,ACCAGTGGCCAAACGTGGCGTGGACGCAGCAAGCGACGGTCGGAGTCACCTAGTGCAG,3270 fluorescence intensity (a.u.)
9,GCGTAGTATGTCACGCTCACGCACACGTCCGCGCGACGCTCGGAGTCACCTAGTGCAG,4530 fluorescence intensity (a.u.)
10,GTATCCTATCTGGTACAAAGTAAATCATGACTCAGGGCAGCGGAGTCACCTAGTGCAG,9160 fluorescence intensity (a.u.)
11,AGGGCTGCCACCGCCAGACACATCACCTTCCCCATCGACCCGGAGTCACCTAGTGCAG,3880 fluorescence intensity (a.u.)
12,GAGTGACGTCAGTGGACGGAGTGGTACATAACGAAGAAAACGGAGTCACCTAGTGCAG,17300 fluorescence intensity (a.u.)
13,AATCTGACTTCAAAGTTTACGATGGAAGGCGGAGGAAGTACGGAGTCACCTAGTGCAG,4090 fluorescence intensity (a.u.)
14,CACCGTACCTCGCCATATCGTCAAGCAGCAGTGCTAACTACGGAGTCACCTAGTGCAG,3530 fluorescence intensity (a.u.)
15,GCTGCTCTGTAGCTGGCAGGCTAGGGTTTACGCTAGCTGACGGAGTCACCTAGTGCAG,3830 fluorescence intensity (a.u.)
16,TTTTGGTCATTTTACCATATGACTTTGTTTTGGTAATTTGCGGAGTCACCTAGTGCAG,3210 fluorescence intensity (a.u.)
17,ATCTGTGATTGAATGTATGAATCTGTGATGTGGTGACTGACGGAGTCACCTAGTGCAG,4250 fluorescence intensity (a.u.)
18,GGTCACTGTTGGAGAGGTACAGTGACTTTGACCTAGCTTTCGGAGTCACCTAGTGCAG,3610 fluorescence intensity (a.u.)
19,ACGGCTTCCTTACGTGGCACACGTAAGCCGTTGCTTGCTTCGGAGTCACCTAGTGCAG,35100 fluorescence intensity (a.u.)
20,GGGAGAGAAGAGGGGAGAGAGAGGAGTTGACGTGGCCATGCGGAGTCACCTAGTGCAG,18800 fluorescence intensity (a.u.)
21,TCAATTTCCATACACACGGCTCCGTGCTCGCGCTGCCTGCCGGAGTCACCTAGTGCAG,3700 fluorescence intensity (a.u.)
